Data reported in patent US20170183307 (published 2017).

Assay: general procedure: solution-phase peptide synthesis; EDC.HCl/HOBt
[1] = coupling step, HPLC, hydrochloride
[2] = late stage modification step, HPLC, hydrochloride
[3] = late stage modification step, HPLC, hydrochloride, run 1
[4] = late stage modification step, HPLC, hydrochloride, run 2
[5] = late stage modification step, hydrochloride

Substance	crude HPLC purity [1] [%]	crude HPLC purity [2] [%]	crude HPLC purity [3] [%]	crude HPLC purity [4] [%]	step yield [5] [%]	further results
Boc-D-Phe-D-Phe-D-Leu-D-Lys(Boc)-α-Boc-Pic-OMe	98.6					
D-Phe-D-Leu-D-Lys(Boc)-α-Boc-Pic-OMe		97.3				
Cbz-D-Phe-D-Leu-D-Lys(Boc)-α-Boc-Pic-OMe	97.6					
D-Phe-D-Phe-D-Leu-D-Lys-Pic			99.7	95.4	96.4	crude HPLC purity (late stage modification step, HPLC, hydrochloride, run 3): 93.1%; crude HPLC purity (late stage modification step, HPLC, hydrochloride, run 4): 95.2%; crude HPLC purity (late stage modification step, HPLC, hydrochloride, run 5): 79.2%
Boc-D-Phe-D-Phe-D-Leu-D-Lys(Boc)-α-Boc-Pic-OH		80.8			99.3	
D-Phe-D-Phe-D-Leu-D-Lys-Pic-OMe hydrochloride			98.2	95.4		crude HPLC purity (late stage modification step, HPLC, TFA salt): 95.2%; step yield (late stage modification step, TFA salt): 93.0%; step yield (late stage modification step, hydrochloride, run 1): 99.0%; step yield (late stage modification step, hydrochloride, run 2): 96.7%; final HPLC purity (purification step, HPLC, hydrochloride): 99.2%; step yield (purification step, hydrochloride): 80%
